Data as given in the supplement of paper PMC6411743.
± gives the standard deviation of the averaged measurements. This is a selection; strong and weak results do not stand in their true shares.

Sequences of proteins named here, by UniProt entry; tags and fusion partners are left off. A change or cut given only in a name is not applied to a line headed by its entry.
UniProt Q9BUR5: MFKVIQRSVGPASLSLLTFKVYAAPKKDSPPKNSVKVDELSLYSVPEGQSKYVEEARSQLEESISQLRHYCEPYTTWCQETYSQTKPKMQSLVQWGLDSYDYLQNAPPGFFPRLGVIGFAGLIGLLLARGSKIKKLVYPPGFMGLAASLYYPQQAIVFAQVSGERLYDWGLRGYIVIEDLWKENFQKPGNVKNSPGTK
UniProt Q9BQE5: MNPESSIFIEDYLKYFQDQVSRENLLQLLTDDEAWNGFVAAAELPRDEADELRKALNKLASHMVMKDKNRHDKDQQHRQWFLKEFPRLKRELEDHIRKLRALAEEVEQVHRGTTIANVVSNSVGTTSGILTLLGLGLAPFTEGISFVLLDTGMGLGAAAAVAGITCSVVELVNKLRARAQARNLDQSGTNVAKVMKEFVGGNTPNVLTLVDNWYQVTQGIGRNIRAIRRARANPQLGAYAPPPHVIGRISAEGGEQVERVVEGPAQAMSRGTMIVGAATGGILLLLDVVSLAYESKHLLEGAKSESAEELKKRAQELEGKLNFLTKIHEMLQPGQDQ
UniProt Q86W34: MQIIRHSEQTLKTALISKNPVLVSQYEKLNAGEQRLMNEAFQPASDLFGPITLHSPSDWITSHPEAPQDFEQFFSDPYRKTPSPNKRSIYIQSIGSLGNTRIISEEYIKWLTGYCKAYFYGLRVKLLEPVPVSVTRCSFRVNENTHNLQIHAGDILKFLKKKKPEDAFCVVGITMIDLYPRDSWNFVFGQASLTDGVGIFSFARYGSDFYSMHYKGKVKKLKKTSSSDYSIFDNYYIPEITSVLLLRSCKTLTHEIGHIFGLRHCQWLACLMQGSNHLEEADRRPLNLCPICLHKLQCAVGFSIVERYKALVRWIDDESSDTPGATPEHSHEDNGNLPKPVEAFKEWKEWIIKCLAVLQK
UniProt Q9GZP9: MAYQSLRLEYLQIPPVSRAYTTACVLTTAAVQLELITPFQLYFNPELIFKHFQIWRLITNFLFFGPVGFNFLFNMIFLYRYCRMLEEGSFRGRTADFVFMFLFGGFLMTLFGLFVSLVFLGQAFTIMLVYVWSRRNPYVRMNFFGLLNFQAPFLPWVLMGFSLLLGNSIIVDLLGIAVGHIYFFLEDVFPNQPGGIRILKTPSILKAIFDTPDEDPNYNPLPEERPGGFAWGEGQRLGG
UniProt P42694: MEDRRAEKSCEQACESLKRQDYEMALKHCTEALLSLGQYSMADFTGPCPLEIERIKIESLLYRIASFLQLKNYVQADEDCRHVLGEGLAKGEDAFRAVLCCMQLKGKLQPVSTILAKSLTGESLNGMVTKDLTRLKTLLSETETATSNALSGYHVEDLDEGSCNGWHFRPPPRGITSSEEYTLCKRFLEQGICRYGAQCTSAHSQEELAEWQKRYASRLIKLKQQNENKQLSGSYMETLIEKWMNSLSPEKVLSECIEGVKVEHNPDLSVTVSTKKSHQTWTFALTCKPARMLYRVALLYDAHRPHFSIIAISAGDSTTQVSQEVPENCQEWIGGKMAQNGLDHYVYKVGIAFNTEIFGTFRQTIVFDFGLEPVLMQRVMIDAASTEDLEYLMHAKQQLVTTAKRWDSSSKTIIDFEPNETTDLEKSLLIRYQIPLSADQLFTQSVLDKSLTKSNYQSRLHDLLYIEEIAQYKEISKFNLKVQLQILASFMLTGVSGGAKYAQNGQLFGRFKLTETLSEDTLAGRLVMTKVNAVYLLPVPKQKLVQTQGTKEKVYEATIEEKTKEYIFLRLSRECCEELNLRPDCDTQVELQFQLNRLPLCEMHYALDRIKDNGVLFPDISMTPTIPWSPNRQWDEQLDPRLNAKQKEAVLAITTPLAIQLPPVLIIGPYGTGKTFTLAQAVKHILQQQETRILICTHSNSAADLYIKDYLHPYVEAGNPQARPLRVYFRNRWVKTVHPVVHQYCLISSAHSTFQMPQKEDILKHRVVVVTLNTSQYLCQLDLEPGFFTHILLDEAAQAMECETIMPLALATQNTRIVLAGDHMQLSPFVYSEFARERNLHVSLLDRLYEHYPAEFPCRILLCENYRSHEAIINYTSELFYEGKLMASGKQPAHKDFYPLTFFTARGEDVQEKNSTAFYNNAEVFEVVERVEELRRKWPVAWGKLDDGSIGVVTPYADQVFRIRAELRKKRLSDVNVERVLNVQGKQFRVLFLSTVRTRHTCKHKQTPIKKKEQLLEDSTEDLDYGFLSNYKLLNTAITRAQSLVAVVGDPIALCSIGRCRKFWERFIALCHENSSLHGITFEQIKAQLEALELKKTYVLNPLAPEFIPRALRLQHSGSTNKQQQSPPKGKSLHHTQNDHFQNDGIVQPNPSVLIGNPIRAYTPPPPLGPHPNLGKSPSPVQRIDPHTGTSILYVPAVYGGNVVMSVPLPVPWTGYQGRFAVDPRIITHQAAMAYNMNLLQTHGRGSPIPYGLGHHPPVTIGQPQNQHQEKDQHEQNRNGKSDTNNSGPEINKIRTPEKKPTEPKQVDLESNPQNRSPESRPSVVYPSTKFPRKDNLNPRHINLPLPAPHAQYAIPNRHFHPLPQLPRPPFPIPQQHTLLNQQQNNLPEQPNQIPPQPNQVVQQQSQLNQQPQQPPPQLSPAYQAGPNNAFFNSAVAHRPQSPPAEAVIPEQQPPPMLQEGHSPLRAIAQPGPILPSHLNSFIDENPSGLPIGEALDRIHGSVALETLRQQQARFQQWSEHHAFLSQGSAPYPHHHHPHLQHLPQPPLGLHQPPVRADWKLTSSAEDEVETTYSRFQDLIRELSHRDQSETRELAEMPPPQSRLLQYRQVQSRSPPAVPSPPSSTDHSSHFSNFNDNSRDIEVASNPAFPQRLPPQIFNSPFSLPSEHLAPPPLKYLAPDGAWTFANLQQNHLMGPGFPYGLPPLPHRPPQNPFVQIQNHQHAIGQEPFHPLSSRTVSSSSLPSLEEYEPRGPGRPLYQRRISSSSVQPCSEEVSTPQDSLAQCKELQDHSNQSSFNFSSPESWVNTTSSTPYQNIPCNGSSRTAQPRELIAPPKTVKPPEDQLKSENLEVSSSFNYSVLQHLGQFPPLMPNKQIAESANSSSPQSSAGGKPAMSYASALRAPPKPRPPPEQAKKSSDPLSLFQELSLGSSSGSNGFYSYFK
UniProt Q9BZG8: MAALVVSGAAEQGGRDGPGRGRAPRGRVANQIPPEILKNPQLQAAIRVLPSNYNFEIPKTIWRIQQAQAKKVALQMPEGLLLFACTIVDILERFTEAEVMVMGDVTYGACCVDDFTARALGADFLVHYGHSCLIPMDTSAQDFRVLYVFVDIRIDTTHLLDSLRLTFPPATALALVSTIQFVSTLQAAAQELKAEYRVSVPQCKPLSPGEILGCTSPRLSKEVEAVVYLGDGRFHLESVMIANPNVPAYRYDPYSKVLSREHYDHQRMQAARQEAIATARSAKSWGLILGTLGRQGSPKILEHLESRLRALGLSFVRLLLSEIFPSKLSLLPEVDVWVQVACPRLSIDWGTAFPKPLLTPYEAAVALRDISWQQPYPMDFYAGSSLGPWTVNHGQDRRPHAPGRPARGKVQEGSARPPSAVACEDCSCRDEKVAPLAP
UniProt Q9BXC9: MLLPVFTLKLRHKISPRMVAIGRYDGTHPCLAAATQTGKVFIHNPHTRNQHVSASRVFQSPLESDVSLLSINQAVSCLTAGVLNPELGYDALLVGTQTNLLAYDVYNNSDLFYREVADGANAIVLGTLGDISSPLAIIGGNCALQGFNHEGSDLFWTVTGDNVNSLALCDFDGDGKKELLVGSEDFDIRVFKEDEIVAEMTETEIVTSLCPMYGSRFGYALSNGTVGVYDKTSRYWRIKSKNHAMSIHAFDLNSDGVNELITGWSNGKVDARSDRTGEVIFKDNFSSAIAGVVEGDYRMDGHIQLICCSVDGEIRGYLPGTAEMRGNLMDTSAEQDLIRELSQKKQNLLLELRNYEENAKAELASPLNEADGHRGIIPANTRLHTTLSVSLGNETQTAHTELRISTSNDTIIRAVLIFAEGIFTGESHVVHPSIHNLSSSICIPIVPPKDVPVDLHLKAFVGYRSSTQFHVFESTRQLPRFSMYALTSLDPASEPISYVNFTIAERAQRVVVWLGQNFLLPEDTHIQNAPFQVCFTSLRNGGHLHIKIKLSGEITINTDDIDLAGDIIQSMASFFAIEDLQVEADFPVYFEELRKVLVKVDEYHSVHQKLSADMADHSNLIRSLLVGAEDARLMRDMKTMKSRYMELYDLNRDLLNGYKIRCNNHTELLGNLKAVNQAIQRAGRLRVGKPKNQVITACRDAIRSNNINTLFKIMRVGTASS
UniProt Q02978: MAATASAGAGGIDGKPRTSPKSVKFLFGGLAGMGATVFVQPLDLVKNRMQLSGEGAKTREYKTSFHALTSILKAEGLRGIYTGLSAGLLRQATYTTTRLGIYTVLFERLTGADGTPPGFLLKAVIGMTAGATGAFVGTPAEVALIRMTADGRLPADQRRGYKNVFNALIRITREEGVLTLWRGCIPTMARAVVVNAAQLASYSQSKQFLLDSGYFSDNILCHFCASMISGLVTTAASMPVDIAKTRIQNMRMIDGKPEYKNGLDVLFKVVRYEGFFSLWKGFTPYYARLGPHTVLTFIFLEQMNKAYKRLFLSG
UniProt O14578, whole entry: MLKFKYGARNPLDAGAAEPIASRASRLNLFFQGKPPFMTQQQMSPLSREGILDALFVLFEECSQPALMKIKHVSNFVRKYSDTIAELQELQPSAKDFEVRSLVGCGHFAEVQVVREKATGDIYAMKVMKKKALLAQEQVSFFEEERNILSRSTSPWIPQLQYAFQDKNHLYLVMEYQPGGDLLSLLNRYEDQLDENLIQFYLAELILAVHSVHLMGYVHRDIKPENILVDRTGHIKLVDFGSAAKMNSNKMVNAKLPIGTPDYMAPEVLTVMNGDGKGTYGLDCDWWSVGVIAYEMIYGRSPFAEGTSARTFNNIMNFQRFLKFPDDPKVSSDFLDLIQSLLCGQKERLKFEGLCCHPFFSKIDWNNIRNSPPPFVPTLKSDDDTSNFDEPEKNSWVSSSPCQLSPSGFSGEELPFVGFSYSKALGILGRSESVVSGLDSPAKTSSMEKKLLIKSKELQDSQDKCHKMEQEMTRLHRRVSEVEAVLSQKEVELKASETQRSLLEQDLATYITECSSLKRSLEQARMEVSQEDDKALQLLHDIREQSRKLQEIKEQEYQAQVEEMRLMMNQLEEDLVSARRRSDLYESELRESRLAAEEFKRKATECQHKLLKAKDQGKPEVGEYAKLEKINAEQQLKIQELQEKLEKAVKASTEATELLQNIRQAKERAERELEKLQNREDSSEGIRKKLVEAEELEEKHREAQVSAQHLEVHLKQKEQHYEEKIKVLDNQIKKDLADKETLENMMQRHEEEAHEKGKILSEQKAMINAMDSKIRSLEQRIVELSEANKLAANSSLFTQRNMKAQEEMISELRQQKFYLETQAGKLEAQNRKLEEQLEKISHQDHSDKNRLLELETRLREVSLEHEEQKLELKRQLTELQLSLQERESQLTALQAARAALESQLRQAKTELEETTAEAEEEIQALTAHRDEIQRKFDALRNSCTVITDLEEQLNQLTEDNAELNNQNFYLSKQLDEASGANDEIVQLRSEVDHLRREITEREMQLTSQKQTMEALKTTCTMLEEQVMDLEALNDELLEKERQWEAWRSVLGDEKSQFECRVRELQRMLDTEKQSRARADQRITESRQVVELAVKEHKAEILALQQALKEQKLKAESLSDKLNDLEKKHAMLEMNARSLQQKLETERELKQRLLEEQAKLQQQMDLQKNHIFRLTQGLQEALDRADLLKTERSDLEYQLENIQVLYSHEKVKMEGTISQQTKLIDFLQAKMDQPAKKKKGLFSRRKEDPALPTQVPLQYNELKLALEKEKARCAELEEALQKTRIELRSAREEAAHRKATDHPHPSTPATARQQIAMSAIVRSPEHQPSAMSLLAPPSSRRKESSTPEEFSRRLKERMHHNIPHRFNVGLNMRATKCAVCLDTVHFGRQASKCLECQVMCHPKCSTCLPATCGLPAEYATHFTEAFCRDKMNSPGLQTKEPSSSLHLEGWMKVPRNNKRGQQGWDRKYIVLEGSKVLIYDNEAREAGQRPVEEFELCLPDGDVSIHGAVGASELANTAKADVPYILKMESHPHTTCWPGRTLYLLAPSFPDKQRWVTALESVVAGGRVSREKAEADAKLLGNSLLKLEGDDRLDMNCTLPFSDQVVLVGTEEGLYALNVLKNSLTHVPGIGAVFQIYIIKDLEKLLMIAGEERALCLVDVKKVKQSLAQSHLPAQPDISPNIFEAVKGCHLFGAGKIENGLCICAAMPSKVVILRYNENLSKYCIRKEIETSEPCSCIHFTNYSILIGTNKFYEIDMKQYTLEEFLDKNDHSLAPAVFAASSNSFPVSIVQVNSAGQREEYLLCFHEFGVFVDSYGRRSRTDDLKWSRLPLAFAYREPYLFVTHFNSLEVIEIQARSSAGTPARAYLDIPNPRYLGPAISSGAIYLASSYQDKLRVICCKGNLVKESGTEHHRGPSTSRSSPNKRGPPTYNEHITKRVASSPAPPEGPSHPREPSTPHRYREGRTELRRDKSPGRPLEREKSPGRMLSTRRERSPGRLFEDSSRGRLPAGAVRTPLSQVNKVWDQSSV

Compound: Nc1ncnc2c1ncn2[C@@H]1O[C@H](COP(=O)(O)OP(=O)(O)NP(=O)(O)O)[C@@H](O)[C@H]1O [adenylyl imidodiphosphate]
Assay: NP40-soluble protein abundance relative to vehicle (solubility fold change) (ratio); higher = more soluble protein in presence of AMP-PNP
In short: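 Crude Jurkat lysate, prepared by Dounce homogenisation, was exposed to eight concentrations from 0.1 to 10 mM for 10 min at room temperature and then 3 min at 37 °C. Solubilisation used 0.8% NP40 with benzonase for 60 min at 4 °C, followed by ultracentrifugation and TMT labelling of the supernatant for LC-MS/MS. After vsn normalisation of intensities, each value is the fold change against the detergent-processed vehicle within each replicate, across three independent experiments.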

Target | NP40-soluble protein abundance (concentration: 1mM) | NP40-soluble protein abundance (concentration: 2mM) | NP40-soluble protein abundance (concentration: 4mM) | NP40-soluble protein abundance (concentration: 6mM) | NP40-soluble protein abundance (concentration: 8mM) | NP40-soluble protein abundance (concentration: 10mM)
I3L0N3 and related entries (UniProt P46459) | 0.956 ± 0.025 | 0.902 ± 0.091 | 0.934 ± 0.034 | 0.913 ± 0.02 | 0.917 ± 0.046 | 0.914 ± 0.08
G3XAG1 and related entries (UniProt Q96ME7) | 1.04 ± 0.064 | 1.03 ± 0.1 | 1.17 ± 0.086 | 1.39 ± 0.083 | 1.52 ± 0.039 | 1.64 ± 0.1
H0YHA7 and related entries (UniProt Q07020) | 1.02 ± 0.038 | 0.9774 ± 0.0023 | 1.01 ± 0.086 | 0.9115 ± 0.0037 | 0.766 ± 0.042 | 1.04 ± 0.082
H7C1U8 and related entries (UniProt Q9BUR5) | 1.05 ± 0.025 | 1.02 ± 0.016 | 1.04 ± 0.038 | 0.99 ± 0.043 | 1.04 ± 0.041 | 0.957 ± 0.081
H3BSM7 and related entries (UniProt Q96GQ5) | 1 ± 0.032 | 0.9753 ± 0.0055 | 1.02 ± 0.054 | 1.06 ± 0.055 | 1.07 ± 0.055 | 1.06 ± 0.019
H0YEU4 and related entries (UniProt Q03164) | 1.05 ± 0.04 | 1.11 ± 0.037 | 1.12 ± 0.013 | 1.12 ± 0.029 | 1.15 ± 0.045 | 1.22 ± 0.092
H3BNF9 and related entries (UniProt Q9Y2V0) | 0.941 ± 0.027 | 0.939 ± 0.036 | 0.925 ± 0.022 | 0.898 ± 0.027 | 0.9264 ± 0.0073 | 0.871 ± 0.0055
J3KQL8 and related entries (UniProt Q9BQE5) | 0.968 ± 0.02 | 0.98 ± 0.049 | 0.981 ± 0.036 | 0.959 ± 0.026 | 0.962 ± 0.031 | 0.952 ± 0.038
J3KP15 and related entries (UniProt Q01130) | 1.03 ± 0.036 | 1.1 ± 0.14 | 1 ± 0.035 | 1.01 ± 0.067 | 0.969 ± 0.059 | 1.02 ± 0.1
J3KRD0 and related entries (UniProt Q86W34) | 1 ± 0.038 | 0.994 ± 0.03 | 0.968 ± 0.041 | 0.977 ± 0.011 | 0.985 ± 0.032 | 1.03 ± 0.027
J3QT87 and related entries (UniProt Q96SW2) | 0.967 ± 0.04 | 0.942 ± 0.058 | 0.963 ± 0.032 | 0.946 ± 0.057 | 1.01 ± 0.04 | 0.956 ± 0.034
J3KNV1 and related entries (UniProt O60281) | 1.02 ± 0.034 | 1.08 ± 0.024 | 1.016 ± 0.0028 | 0.966 ± 0.034 | 0.968 ± 0.02 | 0.985 ± 0.041
H7BYY1 and related entries (UniProt P09493) | 1.14 ± 0.055 | 1.23 ± 0.12 | 1.17 ± 0.11 | 1.22 ± 0.18 | 1.21 ± 0.093 | 1.06 ± 0.061
I3L1T3 and related entries (UniProt Q9GZP9) | 1.01 ± 0.029 | 0.939 ± 0.083 | 0.995 ± 0.026 | 0.985 ± 0.012 | 0.988 ± 0.018 | 0.949 ± 0.04
J3QS41 and related entries (UniProt P42694) | 0.942 ± 0.031 | 0.921 ± 0.04 | 0.942 ± 0.04 | 0.912 ± 0.0096 | 0.908 ± 0.031 | 0.895 ± 0.018
H3BUF6 and related entries (UniProt Q8WWM7) | 1.027 ± 0.0083 | 1.1 ± 0.094 | 1.04 ± 0.033 | 1.05 ± 0.024 | 1.01 ± 0.021 | 1.07 ± 0.033
J3KQ34 and related entries (UniProt Q9H9Q2) | 0.911 ± 0.065 | 0.94 ± 0.028 | 0.901 ± 0.043 | 0.895 ± 0.045 | 0.882 ± 0.039 | 0.813 ± 0.07
G5E9V5 and related entries (UniProt P82650) | 1 ± 0.076 | 0.946 ± 0.095 | 0.947 ± 0.12 | 0.924 ± 0.14 | 0.92 ± 0.13 | 0.913 ± 0.18
H0Y659 and related entries (UniProt Q7Z6Z7) | 0.996 ± 0.012 | 0.9889 ± 0.0057 | 0.9758 ± 0.0051 | 0.962 ± 0.023 | 0.948 ± 0.023 | 0.948 ± 0.039
G5EA30 and related entries (UniProt Q92879) | 1.06 ± 0.025 | 1.07 ± 0.066 | 1.09 ± 0.04 | 1.11 ± 0.067 | 1.12 ± 0.057 | 1.17 ± 0.056
H3BLS7 and related entries (UniProt Q5THJ4) | 0.949 ± 0.069 | 0.947 ± 0.083 | 0.946 ± 0.1 | 0.987 ± 0.075 | 0.963 ± 0.11 | 0.942 ± 0.061
J3KQ32 and related entries (UniProt Q9NTK5) | 0.942 ± 0.039 | 0.9294 ± 0.0082 | 0.934 ± 0.038 | 0.992 ± 0.052 | 0.9996 ± 0.0064 | 0.992 ± 0.032

Part of the list above in another layout.
Target	NP40-soluble protein abundance (concentration: 1mM)	NP40-soluble protein abundance (concentration: 2mM)	NP40-soluble protein abundance (concentration: 4mM)	NP40-soluble protein abundance (concentration: 6mM)	NP40-soluble protein abundance (concentration: 8mM)	NP40-soluble protein abundance (concentration: 10mM)
J3QT87 and related entries (UniProt Q96SW2)	0.967 ± 0.04	0.942 ± 0.058	0.963 ± 0.032	0.946 ± 0.057	1.01 ± 0.04	0.956 ± 0.034
J3KNV1 and related entries (UniProt O60281)	1.02 ± 0.034	1.08 ± 0.024	1.016 ± 0.0028	0.966 ± 0.034	0.968 ± 0.02	0.985 ± 0.041
H7BYY1 and related entries (UniProt P09493)	1.14 ± 0.055	1.23 ± 0.12	1.17 ± 0.11	1.22 ± 0.18	1.21 ± 0.093	1.06 ± 0.061
I3L1T3 and related entries (UniProt Q9GZP9)	1.01 ± 0.029	0.939 ± 0.083	0.995 ± 0.026	0.985 ± 0.012	0.988 ± 0.018	0.949 ± 0.04
J3QS41 and related entries (UniProt P42694)	0.942 ± 0.031	0.921 ± 0.04	0.942 ± 0.04	0.912 ± 0.0096	0.908 ± 0.031	0.895 ± 0.018
H3BUF6 and related entries (UniProt Q8WWM7)	1.027 ± 0.0083	1.1 ± 0.094	1.04 ± 0.033	1.05 ± 0.024	1.01 ± 0.021	1.07 ± 0.033
J3KQ34 and related entries (UniProt Q9H9Q2)	0.911 ± 0.065	0.94 ± 0.028	0.901 ± 0.043	0.895 ± 0.045	0.882 ± 0.039	0.813 ± 0.07
G5E9V5 and related entries (UniProt P82650)	1 ± 0.076	0.946 ± 0.095	0.947 ± 0.12	0.924 ± 0.14	0.92 ± 0.13	0.913 ± 0.18
H0Y659 and related entries (UniProt Q7Z6Z7)	0.996 ± 0.012	0.9889 ± 0.0057	0.9758 ± 0.0051	0.962 ± 0.023	0.948 ± 0.023	0.948 ± 0.039
G5EA30 and related entries (UniProt Q92879)	1.06 ± 0.025	1.07 ± 0.066	1.09 ± 0.04	1.11 ± 0.067	1.12 ± 0.057	1.17 ± 0.056
H3BLS7 and related entries (UniProt Q5THJ4)	0.949 ± 0.069	0.947 ± 0.083	0.946 ± 0.1	0.987 ± 0.075	0.963 ± 0.11	0.942 ± 0.061
J3KQ32 and related entries (UniProt Q9NTK5)	0.942 ± 0.039	0.9294 ± 0.0082	0.934 ± 0.038	0.992 ± 0.052	0.9996 ± 0.0064	0.992 ± 0.032

(list continues)

Target | NP40-soluble protein abundance (concentration: 1mM) | NP40-soluble protein abundance (concentration: 2mM) | NP40-soluble protein abundance (concentration: 4mM) | NP40-soluble protein abundance (concentration: 6mM) | NP40-soluble protein abundance (concentration: 8mM) | NP40-soluble protein abundance (concentration: 10mM)
I3VM54 and related entries (UniProt Q9Y2K7) | 1.02 ± 0.016 | 1.08 ± 0.045 | 1.17 ± 0.037 | 1.26 ± 0.12 | 1.31 ± 0.11 | 1.43 ± 0.17
H0Y5C6 and related entries (UniProt P21333) | 0.993 ± 0.022 | 1.01 ± 0.026 | 0.958 ± 0.017 | 0.967 ± 0.026 | 0.939 ± 0.016 | 0.941 ± 0.015
H3BMM9 and related entries (UniProt Q15287) | 1.08 ± 0.1 | 1.07 ± 0.032 | 0.989 ± 0.061 | 0.987 ± 0.071 | 0.931 ± 0.078 | 0.998 ± 0.11
J3QLS3 and related entries (UniProt Q9Y2R9) | 1.01 ± 0.066 | 1.03 ± 0.033 | 0.964 ± 0.064 | 0.965 ± 0.11 | 0.975 ± 0.1 | 0.893 ± 0.072
G3XAH6 and related entries (UniProt P51003) | 0.998 ± 0.012 | 1.01 ± 0.07 | 1 ± 0.021 | 0.993 ± 0.041 | 0.979 ± 0.053 | 0.972 ± 0.057
I3L2J0 and related entries (UniProt Q96RK0) | 1.01 ± 0.017 | 1.03 ± 0.11 | 1.01 ± 0.032 | 0.975 ± 0.028 | 0.986 ± 0.045 | 0.993 ± 0.033
H3BMQ0 and related entries (UniProt P49815) | 1 ± 0.022 | 1.01 ± 0.036 | 0.968 ± 0.011 | 0.933 ± 0.048 | 0.919 ± 0.037 | 0.916 ± 0.029
H0YLE6 and related entries (UniProt Q9NWH9) | 1.05 ± 0.044 | 1.11 ± 0.083 | 1.08 ± 0.039 | 1.12 ± 0.092 | 1.11 ± 0.094 | 1.17 ± 0.094
H7BXD5 and related entries (UniProt P28676) | 0.99 ± 0.028 | 0.985 ± 0.059 | 0.982 ± 0.069 | 1.14 ± 0.018 | 1.09 ± 0.09 | 1.07 ± 0.07
I3L2B0 and related entries (UniProt O75153) | 1 ± 0.024 | 0.963 ± 0.028 | 0.977 ± 0.019 | 0.951 ± 0.013 | 0.959 ± 0.031 | 0.949 ± 0.014
I3L1H5 and related entries (UniProt Q9BZG8) | 1.002 ± 0.0078 | 0.9752 ± 0.0012 | 1.02 ± 0.017 | 0.992 ± 0.017 | 1.01 ± 0.018 | 0.962 ± 0.035
H3BRL0 and related entries (UniProt Q9BXC9) | 0.991 ± 0.028 | 0.98 ± 0.033 | 0.9819 ± 0.0082 | 0.966 ± 0.01 | 0.955 ± 0.024 | 0.949 ± 0.037
H0YJ21 and related entries (UniProt Q14204) | 0.962 ± 0.035 | 0.881 ± 0.14 | 0.943 ± 0.084 | 0.911 ± 0.069 | 0.943 ± 0.1 | 0.899 ± 0.13
I3L1P8 and related entries (UniProt Q02978) | 0.972 ± 0.01 | 0.914 ± 0.035 | 0.9876 ± 0.0019 | 0.974 ± 0.043 | 1.02 ± 0.018 | 0.97 ± 0.014
H0YBR0 and related entries (UniProt Q96Q05) | 1.09 ± 0.24 | 0.939 ± 0.053 | 0.968 ± 0.027 | 0.909 ± 0.011 | 0.952 ± 0.024 | 0.944 ± 0.031
H3BSW6 and related entries (UniProt Q2VPK5) | 0.978 ± 0.019 | 0.958 ± 0.036 | 0.976 ± 0.013 | 0.972 ± 0.011 | 0.991 ± 0.014 | 0.982 ± 0.017
H0Y362 and related entries (UniProt Q8NEW0) | 0.9891 ± 0.0011 | 0.958 ± 0.011 | 0.976 ± 0.019 | 0.983 ± 0.022 | 0.998 ± 0.016 | 0.9649 ± 0.004
J3QQJ0 and related entries (UniProt Q9UHR5) | 0.975 ± 0.033 | 1.05 ± 0.13 | 0.989 ± 0.054 | 0.985 ± 0.048 | 0.985 ± 0.029 | 1.03 ± 0.03
H7BYJ3 and related entries (UniProt O14578) | 1.027 ± 0.0099 | 1.02 ± 0.0061 | 1.011 ± 0.0035 | 0.977 ± 0.038 | 0.957 ± 0.012 | 0.961 ± 0.021
I3L2C7 and related entries (UniProt P57678) | 1.01 ± 0.058 | 0.919 ± 0.046 | 0.957 ± 0.032 | 0.951 ± 0.034 | 0.983 ± 0.08 | 0.937 ± 0.068
H7C0D5 and related entries (UniProt Q9BSR8) | 0.978 ± 0.082 | 0.971 ± 0.029 | 0.956 ± 0.1 | 0.956 ± 0.024 | 0.94 ± 0.066 | 0.976 ± 0.05
